Here are results for 1 molecule from doi:10.1101/2020.03.13.991679.

Protein sequences, listed by entry. Tags and fused reporters are not part of them.
UniProt P06492: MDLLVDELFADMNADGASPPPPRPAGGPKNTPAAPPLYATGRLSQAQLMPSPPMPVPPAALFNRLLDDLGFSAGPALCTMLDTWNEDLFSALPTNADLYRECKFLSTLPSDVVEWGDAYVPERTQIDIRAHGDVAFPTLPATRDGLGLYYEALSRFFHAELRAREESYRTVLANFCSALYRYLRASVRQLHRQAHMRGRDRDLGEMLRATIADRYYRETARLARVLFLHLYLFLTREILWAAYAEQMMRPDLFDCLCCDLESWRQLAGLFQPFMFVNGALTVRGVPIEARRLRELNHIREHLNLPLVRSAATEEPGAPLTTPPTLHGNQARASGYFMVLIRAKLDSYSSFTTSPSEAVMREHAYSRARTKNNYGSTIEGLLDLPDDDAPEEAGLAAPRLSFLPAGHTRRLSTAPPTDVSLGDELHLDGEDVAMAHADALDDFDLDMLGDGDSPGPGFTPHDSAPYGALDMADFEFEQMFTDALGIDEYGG

These are yes or no findings as the source states them, for the method shown. In cells and extracts the contact can be indirect. Some binding calls cover weakened binding; strength is not graded here.

This experiment has as its target HSV-1 viral protein 16 (VP16), FLAG-tagged (HSV-1) (UniProt P06492). The experiment in a line: co-IP.

B1: Host Cell Factor C1 Regulator 1 (HCFC1R1) (protein, UniProt Q9NWW0 1-138)
chain: MILQQPLQRGPQGGAQRLPRAALGVTWGLDASSPLRGAVPMSTKRRLEEEQEPLRKQFLSEENMATHFSQLSLHNDHPYCSPPMTFSPALPPLRSPCSELLLWRYPGSLIPEALRLLRLGDTPSPPYPATPAGDIMEL
As to B1, the binding result is listed as “binds”.
